Test results taken from paper PMC5442324, “Zinc is a potent and specific inhibitor of IFN-λ3 signalling” (Nature Communications, 2017).
Results are given in words; binding and its absence hold for the method and conditions named. Binding seen in cells or lysates may run through a third protein. Some results given as binding are weak or reduced against the parent protein; the word gives no strength.

Columns and labels:
[1] = biological target: T1, IFNL receptor 1 (IFNLR1) (human (endogenous in Huh-7)) (UniProt Q8IU57); test: co-IP; Huh-7 lysate (150 mM NaCl, 50 mM Tris-HCl pH 7.4, 1% NP-40, 0.25% deoxycholate) with recombinant IFN-λ3 100 ng/ml alone; precipitated with anti-IFN-λR1 antibody and protein G beads, 4 °C; IFN-λ3 blotted; only the binder purified
T1 sequence: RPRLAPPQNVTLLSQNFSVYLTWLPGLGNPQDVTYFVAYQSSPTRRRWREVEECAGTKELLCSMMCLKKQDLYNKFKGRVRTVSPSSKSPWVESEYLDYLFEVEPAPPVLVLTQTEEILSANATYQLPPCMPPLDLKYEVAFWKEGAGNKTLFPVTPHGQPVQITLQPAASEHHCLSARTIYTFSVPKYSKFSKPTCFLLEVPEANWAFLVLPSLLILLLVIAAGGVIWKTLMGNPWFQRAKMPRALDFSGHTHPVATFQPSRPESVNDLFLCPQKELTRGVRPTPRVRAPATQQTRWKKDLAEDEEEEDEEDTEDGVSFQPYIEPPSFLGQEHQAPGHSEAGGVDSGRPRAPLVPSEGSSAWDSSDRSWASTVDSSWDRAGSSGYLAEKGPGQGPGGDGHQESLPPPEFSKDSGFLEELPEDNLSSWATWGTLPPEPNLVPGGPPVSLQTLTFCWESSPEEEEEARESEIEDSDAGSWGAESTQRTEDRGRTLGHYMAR

[2] = biological target: T2, recombinant human IFN-λ3 (human) (UniProt Q8IZI9); test: co-IP; Huh-7 lysate (150 mM NaCl, 50 mM Tris-HCl pH 7.4, 1% NP-40, 0.25% deoxycholate) with recombinant IFN-λ3 100 ng/ml alone; precipitated with anti-IFN-λ3 antibody and protein G beads, 4 °C; IFN-λR1 blotted; only the target purified
T2 sequence: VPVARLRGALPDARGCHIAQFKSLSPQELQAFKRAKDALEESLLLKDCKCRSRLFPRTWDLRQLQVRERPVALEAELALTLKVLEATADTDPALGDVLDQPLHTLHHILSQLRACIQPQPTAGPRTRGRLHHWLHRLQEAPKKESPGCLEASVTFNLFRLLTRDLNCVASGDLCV

B1: recombinant human IFN-λ3 (ligand, UniProt Q8IZI9 22-196, looked up)
chain: VPVARLRGALPDARGCHIAQFKSLSPQELQAFKRAKDALEESLLLKDCKCRSRLFPRTWDLRQLQVRERPVALEAELALTLKVLEATADTDPALGDVLDQPLHTLHHILSQLRACIQPQPTAGPRTRGRLHHWLHRLQEAPKKESPGCLEASVTFNLFRLLTRDLNCVASGDLCV
notes: IFN-λ3 (interferon lambda 3), human, recombinant, R&D Systems; (Cys169); also called interferon lambda 3; IFNL3; source: bought: R&D Systems
For B1, the binding [1] was “binds”.

B2: IFNL receptor 1 (IFNLR1) (receptor, UniProt Q8IU57 21-520)
chain: RPRLAPPQNVTLLSQNFSVYLTWLPGLGNPQDVTYFVAYQSSPTRRRWREVEECAGTKELLCSMMCLKKQDLYNKFKGRVRTVSPSSKSPWVESEYLDYLFEVEPAPPVLVLTQTEEILSANATYQLPPCMPPLDLKYEVAFWKEGAGNKTLFPVTPHGQPVQITLQPAASEHHCLSARTIYTFSVPKYSKFSKPTCFLLEVPEANWAFLVLPSLLILLLVIAAGGVIWKTLMGNPWFQRAKMPRALDFSGHTHPVATFQPSRPESVNDLFLCPQKELTRGVRPTPRVRAPATQQTRWKKDLAEDEEEEDEEDTEDGVSFQPYIEPPSFLGQEHQAPGHSEAGGVDSGRPRAPLVPSEGSSAWDSSDRSWASTVDSSWDRAGSSGYLAEKGPGQGPGGDGHQESLPPPEFSKDSGFLEELPEDNLSSWATWGTLPPEPNLVPGGPPVSLQTLTFCWESSPEEEEEARESEIEDSDAGSWGAESTQRTEDRGRTLGHYMAR
In the case of B2, the binding [2] is reported as “binds”.
